{"source": "PubChem BioAssay AID1259329 (Drosophila RNAi Screening Center, 2017)", "assay": "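Total ATP after each knock-down with water instead of metal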", "cell system": "Drosophila S2R+ cells", "knock-down reagent": "long dsRNA against Drosophila genes", "duration": "5 days (4 days knock-down, then 1 day after water)", "challenge": "water added as vehicle control, no metal, one day before read-out", "measurement": "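Luciferase-based total ATP per well, read one day after adding water without metal following 4 days knock-down, given as z-score averaged across duplicate plates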", "scale": "mean ATP z-score: higher = more total ATP, likely more viable cells", "call rule": "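a reagent counts as active if its z-score is greater than 1.5 or less than -1.5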", "note": "The whole screen tested 418 reagents; shown is a random part of them. 20 of all reagents (4.8%) count as active. 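All active calls have high ATP; no reagent fell below -1.5.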 A number with no mark means an inactive call. No sequences are given here. Not stated in the record: the amount of reagent, the dose of the treatment."}
{"predicted target": "Acsf2 (Acyl-CoA synthetase family member 2)", "amplicon": "DRSC02172", "mean ATP z-score": 0.107}
{"predicted target": "Acsf2 (Acyl-CoA synthetase family member 2)", "amplicon": "DRSC27832", "mean ATP z-score": 0.848}
{"predicted target": "Npc2f (Niemann-Pick type C-2f)", "amplicon": "DRSC15980", "mean ATP z-score": "1.8 (active)"}
{"predicted target": "fdl (fused lobes)", "amplicon": "DRSC07279", "mean ATP z-score": 0.181}
{"predicted target": "fdl (fused lobes)", "amplicon": "DRSC26852", "mean ATP z-score": "2.05 (active)"}
{"predicted target": "CG7300", "amplicon": "DRSC03044", "mean ATP z-score": -0.646}
{"predicted target": "CG7300", "amplicon": "DRSC28239", "mean ATP z-score": 0.297}
{"predicted target": "Bace (beta-site APP-cleaving enzyme)", "amplicon": "DRSC02197", "mean ATP z-score": 0.444}
{"predicted target": "Bace (beta-site APP-cleaving enzyme)", "amplicon": "DRSC28723", "mean ATP z-score": -1.03}
{"predicted target": "Bace (beta-site APP-cleaving enzyme)", "amplicon": "DRSC33860", "mean ATP z-score": -1.07}
{"predicted target": "ScpX", "amplicon": "DRSC03430", "mean ATP z-score": 0.0702}
{"predicted target": "Had2 (beta Hydroxy acid dehydrogenase 2)", "amplicon": "DRSC05971", "mean ATP z-score": -0.427}
{"predicted target": "Had2 (beta Hydroxy acid dehydrogenase 2)", "amplicon": "DRSC26955", "mean ATP z-score": -0.0261}
{"predicted target": "CG33128", "amplicon": "DRSC00294", "mean ATP z-score": -0.775}
{"predicted target": "CG33128", "amplicon": "DRSC28698", "mean ATP z-score": -1.04}
{"predicted target": "Pex2 (Peroxin 2)", "amplicon": "DRSC10770", "mean ATP z-score": -0.733}
{"predicted target": "Pex2 (Peroxin 2)", "amplicon": "DRSC38311", "mean ATP z-score": -0.927}
{"predicted target": "Mpv17 (Mitochondrial inner membrane protein MPV17)", "amplicon": "DRSC17198", "mean ATP z-score": -0.372}
{"predicted target": "Mpv17 (Mitochondrial inner membrane protein MPV17)", "amplicon": "DRSC39911", "mean ATP z-score": 0.188}
{"predicted target": "Gnpat (Glyceronephosphate O-acyltransferase)", "amplicon": "DRSC16960", "mean ATP z-score": 0.085}
{"predicted target": "Gnpat (Glyceronephosphate O-acyltransferase)", "amplicon": "DRSC40415", "mean ATP z-score": "2.6 (active)"}
{"predicted target": "ZnT63C (Zinc transporter 63C)", "amplicon": "DRSC08519", "mean ATP z-score": 0.252}
{"predicted target": "ZnT63C (Zinc transporter 63C)", "amplicon": "DRSC23528", "mean ATP z-score": -0.714}
{"predicted target": "ZnT63C (Zinc transporter 63C)", "amplicon": "DRSC37698", "mean ATP z-score": 0.215}
{"predicted target": "Lamp1", "amplicon": "DRSC03727", "mean ATP z-score": -1.21}
{"predicted target": "Lamp1", "amplicon": "DRSC31130", "mean ATP z-score": -1.49}
{"predicted target": "Lamp1", "amplicon": "DRSC31131", "mean ATP z-score": -1.34}
{"predicted target": "VhaPPA1-2 (Vacuolar H[+] ATPase PPA1 subunit 2)", "amplicon": "DRSC16176", "mean ATP z-score": -0.0341}
{"predicted target": "VhaPPA1-2 (Vacuolar H[+] ATPase PPA1 subunit 2)", "amplicon": "DRSC25591", "mean ATP z-score": -1.3}
{"predicted target": "CG7408", "amplicon": "DRSC10841", "mean ATP z-score": 0.149}
{"predicted target": "Tsp39D (Tetraspanin 39D)", "amplicon": "DRSC03099", "mean ATP z-score": -0.771}
{"predicted target": "Tsp39D (Tetraspanin 39D)", "amplicon": "DRSC40050", "mean ATP z-score": -0.107}
{"predicted target": "ClC-b (Chloride channel-b)", "amplicon": "DRSC07220", "mean ATP z-score": -0.057}
{"predicted target": "ClC-b (Chloride channel-b)", "amplicon": "DRSC37711", "mean ATP z-score": -0.407}
{"predicted target": "ClC-b (Chloride channel-b)", "amplicon": "DRSC39990", "mean ATP z-score": 0.345}
{"predicted target": "vsg (visgun)", "amplicon": "DRSC25227", "mean ATP z-score": -1.1}
{"predicted target": "CG17597", "amplicon": "DRSC02630", "mean ATP z-score": -1.17}
{"predicted target": "CG17597", "amplicon": "DRSC24788", "mean ATP z-score": -1.27}
{"predicted target": "Acsl (Acyl-CoA synthetase long-chain)", "amplicon": "DRSC07252", "mean ATP z-score": 0.226}
{"predicted target": "Acsl (Acyl-CoA synthetase long-chain)", "amplicon": "DRSC35814", "mean ATP z-score": 0.0161}
{"predicted target": "Rpt6R (Regulatory particle triple-A ATPase 6-related)", "amplicon": "DRSC15431", "mean ATP z-score": -0.272}
{"predicted target": "Rpt6R (Regulatory particle triple-A ATPase 6-related)", "amplicon": "DRSC41241", "mean ATP z-score": -0.38}
{"predicted target": "Gga", "amplicon": "DRSC18260", "mean ATP z-score": -0.78}
{"predicted target": "Gga", "amplicon": "DRSC27761", "mean ATP z-score": 0.828}
{"predicted target": "Tsp42Ea (Tetraspanin 42Ea)", "amplicon": "DRSC04982", "mean ATP z-score": 0.623}
{"predicted target": "Tsp42Ea (Tetraspanin 42Ea)", "amplicon": "DRSC06792", "mean ATP z-score": -0.298}
{"predicted target": "Npc2h (Niemann-Pick type C-2h)", "amplicon": "DRSC14297", "mean ATP z-score": -0.596}
